# These are yes or no findings as the source states them, for the method shown. Some entries that bind do so weakly or less than the wild type.
# By UniProt entry, the sequences of proteins in these tests, tags left out. Residues count along the entry.
# UniProt P07237, 18-508: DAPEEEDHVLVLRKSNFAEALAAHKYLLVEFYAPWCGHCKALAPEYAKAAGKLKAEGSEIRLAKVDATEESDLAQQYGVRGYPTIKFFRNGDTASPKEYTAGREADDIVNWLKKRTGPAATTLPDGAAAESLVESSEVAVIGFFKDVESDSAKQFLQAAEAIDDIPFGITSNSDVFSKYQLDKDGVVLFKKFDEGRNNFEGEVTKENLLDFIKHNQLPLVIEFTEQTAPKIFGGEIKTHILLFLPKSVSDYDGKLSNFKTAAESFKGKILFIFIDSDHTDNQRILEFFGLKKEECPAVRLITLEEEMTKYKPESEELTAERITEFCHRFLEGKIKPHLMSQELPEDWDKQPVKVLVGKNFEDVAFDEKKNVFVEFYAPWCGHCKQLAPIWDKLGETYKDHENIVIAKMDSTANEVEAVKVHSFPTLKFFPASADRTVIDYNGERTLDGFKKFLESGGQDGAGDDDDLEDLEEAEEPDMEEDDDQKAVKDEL
# Target: Cholera toxin holotoxin, nicked and reduced (UniProt P01555)
# Experiment: SPR; […] (10 ug/mL) […] ([…], […]; 10 mM MES pH 7.4, 200 mM NaCl; […]; both purified
substance,measurement,value
"protein disulfide isomerase, reduced (from UniProt P07237 18-508) (enzyme)",binding,binds

# Reference: publication PMC8741891
